For at least one compound, name, drawing or mass did not settle the structure.
Test system: 3T3-L1 adipocytes
Experiment: 3T3-L1 adipocyte differentiation, Oil Red O staining
Format: cell-based, mouse
Settings: drug alone
Protocol: A mouse preadipocyte 3T3-L1 cell line was cultured in DMEM containing 10% […] (CS) and 1% P/S. For differentiation of 3T3-L1, 10% FBS and 1% P/S were used. The cells were cultured in a 37° C. incubator humidified with 5% CO2 atmosphere.
3T3-L1 cells were seeded in a 12-well plate at a density of 5×10^4 cells/well. […] On day 2 of MDI addition, the medium was replaced with 1 μg/ml insulin.
After 2 days, the medium was replaced with DMEM containing 10% FBS and 1% P/S, and treated with a drug. The medium was replaced with fresh DMEM containing 10% FBS and 1% P/S, and treated with the drug three times every 2 days. Finally, the medium was replaced with DMEM containing only the drug in a serum-free state (serum starvation). After 2 days, differentiation of 3T3-L1 was completed.
After the differentiation of 3T3-L1 in the 12-well plate was completed, the cells were fixed with 4% paraformaldehyde and stained with an Oil Red O solution, and then the stained samples were photographed under a microscope (Nikon Eclipse Ti-s). An Oil Red O dye of the samples was dissolved in isopropanol, detected by a spectrophotometer at 492 nm, and the lipid droplet size distribution was measured using ImageJ. OCT-embedded liver samples were stained according to the Roy Ellis protocol. […]

CN(CCOc1ccc(CC2SC(=O)NC2=O)cc1)c1ccccn1 (centres unmarked) [rosiglitazone, reference compound]
lipid droplets / lipid accumulation in adipocytes (Oil Red O) (25 μM during differentiation, FIGS. 3 and 4 left): increased
lipid droplet size distribution in adipocytes (25 μM, FIG. 4 right): the size of small lipid droplets decreased and the size of large lipid droplets increased
